These are yes or no findings as the source states them, for the method shown. For some assays here: In cells and extracts the contact can be indirect. Some entries that bind do so weakly or less than the wild type. For some assays here: Where a sequence is shown, tags or fusion partners need not be part of it.

The chains behind the UniProt entries cited, without tags or fusion partners.
UniProt P45974: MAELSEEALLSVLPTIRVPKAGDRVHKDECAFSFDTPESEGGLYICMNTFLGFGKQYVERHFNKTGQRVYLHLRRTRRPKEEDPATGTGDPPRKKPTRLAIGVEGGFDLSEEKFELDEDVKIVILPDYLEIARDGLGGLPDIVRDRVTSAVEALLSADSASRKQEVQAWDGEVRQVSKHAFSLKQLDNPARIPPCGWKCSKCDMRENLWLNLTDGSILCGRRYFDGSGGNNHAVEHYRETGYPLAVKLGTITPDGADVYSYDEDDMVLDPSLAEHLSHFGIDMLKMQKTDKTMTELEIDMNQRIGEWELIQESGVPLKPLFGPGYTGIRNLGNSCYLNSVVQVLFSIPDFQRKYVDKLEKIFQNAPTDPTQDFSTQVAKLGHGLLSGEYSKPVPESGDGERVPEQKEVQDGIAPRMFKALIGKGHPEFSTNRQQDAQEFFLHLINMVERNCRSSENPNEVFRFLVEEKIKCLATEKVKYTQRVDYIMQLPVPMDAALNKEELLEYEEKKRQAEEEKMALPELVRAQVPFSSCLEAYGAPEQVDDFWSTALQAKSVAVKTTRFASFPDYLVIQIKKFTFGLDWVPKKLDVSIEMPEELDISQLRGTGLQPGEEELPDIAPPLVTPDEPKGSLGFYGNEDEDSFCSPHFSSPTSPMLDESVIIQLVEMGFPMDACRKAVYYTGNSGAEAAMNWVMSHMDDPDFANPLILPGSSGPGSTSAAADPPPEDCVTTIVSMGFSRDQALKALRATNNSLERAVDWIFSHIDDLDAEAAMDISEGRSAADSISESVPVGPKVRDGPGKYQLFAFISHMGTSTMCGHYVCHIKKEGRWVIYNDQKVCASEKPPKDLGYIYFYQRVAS

We go through 2 substances from publication PMC10787506.

The target in one test is T1, GST-PFKP (UniProt Q01813).
T1 sequence: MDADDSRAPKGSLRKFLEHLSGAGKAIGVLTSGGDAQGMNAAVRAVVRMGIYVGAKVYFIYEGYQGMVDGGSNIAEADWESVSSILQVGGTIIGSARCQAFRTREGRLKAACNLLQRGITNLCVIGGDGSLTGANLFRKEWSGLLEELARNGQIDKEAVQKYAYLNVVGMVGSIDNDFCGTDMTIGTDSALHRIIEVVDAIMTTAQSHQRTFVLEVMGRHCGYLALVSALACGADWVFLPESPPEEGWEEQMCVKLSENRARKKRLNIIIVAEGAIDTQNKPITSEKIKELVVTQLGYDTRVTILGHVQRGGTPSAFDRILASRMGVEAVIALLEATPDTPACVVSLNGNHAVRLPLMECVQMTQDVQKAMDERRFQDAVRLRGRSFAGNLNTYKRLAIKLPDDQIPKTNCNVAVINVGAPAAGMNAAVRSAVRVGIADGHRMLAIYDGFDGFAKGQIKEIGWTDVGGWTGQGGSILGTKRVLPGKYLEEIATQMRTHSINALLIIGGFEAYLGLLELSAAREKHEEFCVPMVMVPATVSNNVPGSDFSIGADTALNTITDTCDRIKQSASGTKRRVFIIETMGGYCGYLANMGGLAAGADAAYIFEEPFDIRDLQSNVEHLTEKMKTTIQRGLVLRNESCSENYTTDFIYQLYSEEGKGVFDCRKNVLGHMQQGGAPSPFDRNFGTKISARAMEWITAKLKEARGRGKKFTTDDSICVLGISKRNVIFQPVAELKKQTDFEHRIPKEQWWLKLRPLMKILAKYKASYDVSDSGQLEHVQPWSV
As to the kind of experiment: pull-down; purified His-USP5 incubated with purified GST-PFKP or GST-Tag protein at 4 °C overnight; Glutathione Sepharose beads added for 4 h; eluted in SDS sample buffer, western blot; both purified. Background: A western blot detects proteins with antibodies after separation by electrophoresis.

Test [1] addresses T2, ATP-dependent 6-phosphofructokinase, platelet type (human (endogenous in MDA-MB-231 and SUM-159)) (UniProt Q01813).
T2 sequence: T1 sequence
As to the kind of experiment: co-IP; endogenous proteins in MDA-MB-231 and SUM-159 cell lysates; 2 µg anti-PFKP antibody and 3 µg anti-USP5 antibody per 500 µg of total protein.

On to “His-USP5 (from UniProt P45974 1-858) (enzyme)”, for which the binding result in the test with GST-PFKP is reported as “binds”. As to “Ubiquitin carboxyl-terminal hydrolase 5 (from UniProt P45974 1-858) (enzyme)”, in test [1], the binding result is reported as “binds”.
